From PubChem BioAssay AID248 (DTP/NCI, 2004)
The list does not hold the whole screen: it is rich in T/C values a quarter to a half above the control, in often repeated tests (any T/C) and in doses without a T/C. Other doses and runs of a compound stand elsewhere. T/C is the treated group as % of the vehicle group. Some doses have a count of surviving animals in place of a T/C: the source files T/C as zero there, which appears to mark a toxic dose or a test without result, not a measured value. Some doses without a T/C left all or most animals alive at the check, yet need not have been tolerated: survival well below the control is almost never listed, so the zero probably covers shortened survival too. Survivors were counted at the toxicity check, usually on the fifth day, unless a day is given; later deaths do not show. Schedules are NCI's codes, read here as Q, the interval in days (D) or hours (H), X, the number of doses. Some entries were tested several times; the values are given in rising order. Some schedules carry Z or #; the key to these is not given. Where survival is the endpoint, this PubChem deposit counts one and a half times the control or more as active, and values a quarter to a half above the control carry no call in these data; other NCI protocols may use other cut-offs.

Test system: L1210 leukemia ip in BDF1 mice, survival T/C
Assay: NCI In Vivo Anticancer Drug Screen. Data for tumor model L1210 Leukemia (intraperitoneal) in B6D2F1 (BDF1) mice
Details: T/C endpoint: mean survival time, higher T/C = longer survival
[1] = dose: 200.0 mg/kg/injection, schedule: Q01DX009 (ip), vehicle: Klucel (hydroxypropylcellulose) (HPC)
[2] = dose: 400.0 mg/kg/injection, schedule: Q01DX009 (ip), vehicle: Klucel (hydroxypropylcellulose) (HPC)
[3] = dose: 25.0 mg/kg/injection, schedule: Q01DX009 (ip), vehicle: saline with Tween-80
[4] = dose: 100.0 mg/kg/injection, schedule: Q04DX003 (ip), vehicle: saline with Tween-80
[5] = dose: 200.0 mg/kg/injection, schedule: Q04DX003 (ip), vehicle: saline with Tween-80
[6] = dose: 400.0 mg/kg/injection, schedule: Q04DX003 (ip), vehicle: saline with Tween-80
[7] = dose: 100.0 mg/kg/injection, schedule: Q01DX009 (ip), vehicle: saline with Tween-80
[8] = dose: 200.0 mg/kg/injection, schedule: Q01DX009 (ip), vehicle: saline with Tween-80
[9] = dose: 200.0 mg/kg/injection, schedule: Q04DX003 (ip), vehicle: Klucel (hydroxypropylcellulose) (HPC)
[10] = dose: 20.0 mg/kg/injection, schedule: Q01DX001 (ip), vehicle: saline
[11] = dose: 80.0 mg/kg/injection, schedule: Q01DX001 (ip), vehicle: saline
[12] = dose: 400.0 mg/kg/injection, schedule: Q01DX001 (ip), vehicle: saline
[13] = dose: 400.0 mg/kg/injection, schedule: Q04DX002 (ip), vehicle: Klucel (hydroxypropylcellulose) (HPC)

CC[CH2][Sn]([CH2]CC)([O]S(C)(=O)=O)[O]S(C)(=O)=O
survivor count (dose: 6.25 mg/kg/injection, schedule: Q01DX009 (ip), vehicle: Klucel (hydroxypropylcellulose) (HPC)): 1 of 3 | survivor count (dose: 12.5 mg/kg/injection, schedule: Q01DX009 (ip), vehicle: Klucel (hydroxypropylcellulose) (HPC)): 0 of 3 | survivor count (dose: 25.0 mg/kg/injection, schedule: Q01DX009 (ip), vehicle: Klucel (hydroxypropylcellulose) (HPC)): 0 of 3 | survivor count (dose: 50.0 mg/kg/injection, schedule: Q01DX009 (ip), vehicle: Klucel (hydroxypropylcellulose) (HPC)): 0 of 3 | survivor count (dose: 100.0 mg/kg/injection, schedule: Q01DX009 (ip), vehicle: Klucel (hydroxypropylcellulose) (HPC)): 0 of 3 and 0 of 6 | survivor count [1]: 0 of 6 | survivor count [2]: 0 of 6

O=C1OC(=O)C2C3C=CC(CC12)O3 (configuration not stated)
survivor count [3]: 1 of 6 | survivor count [4]: 1 of 6 | survivor count [5]: 0 of 6 | survivor count [6]: 1 of 6

C[n+]1c(/C=C/c2ccc(O)c3ccccc23)ccc2ccccc21
survivor count (dose: 300.0 mg/kg/injection, schedule: Q01DX001 (ip), vehicle: carboxymethylcellulose (CMC)): 1 of 6

Cc1cc(=O)[nH]c(N/N=C/c2cc(Cl)ccc2O)n1
survivor count [7]: 6 of 6 | survivor count [8]: 5 of 6

COC(=N)c1ccc(Cl)cc1
survivor count (dose: 400.0 mg/kg/injection, schedule: Q01DX009 (ip), vehicle: saline with Tween-80): 3 of 6

CN(C)c1ccc(N=Nc2ccncc2)cc1
survivor count [1]: 3 of 6 | survivor count [2]: 1 of 6

CN1CC(C)(C)C(O)c2ccccc21 (configuration not stated)
survivor count (dose: 100.0 mg/kg/injection, schedule: Q04DX002 (ip), vehicle: other): 1 of 3 | survivor count (dose: 200.0 mg/kg/injection, schedule: Q04DX002 (ip), vehicle: other): 1 of 3 | survivor count (dose: 400.0 mg/kg/injection, schedule: Q04DX002 (ip), vehicle: other): 0 of 3

CCCCNC(=O)/C=C\C(=O)O
survivor count [9]: 6 of 6

O=C1C(=O)N(CNC(c2ccccc2)c2ccccc2)c2ccccc21
survivor count [7]: 6 of 6 | survivor count [4]: 6 of 6 | survivor count [8]: 6 of 6 | survivor count [6]: 6 of 6

O=C(O)CCCc1nc2ccccc2c(=O)[nH]1
T/C (dose: 100.0 mg/kg/injection, schedule: Q01DX001 (ip), vehicle: carboxymethylcellulose (CMC)): 141 % of control

C[n+]1cccc(NC(=O)c2ccc(NC(=O)c3ccc(C(=O)Nc4ccc(NC(=N)N)cc4)cc3)cc2)c1
T/C (dose: 0.9 mg/kg/injection, schedule: Q01DX009 (ip), vehicle: saline): 131 % of control | T/C (dose: 1.3 mg/kg/injection, schedule: Q01DX009 (ip), vehicle: saline): 131 % of control | T/C (dose: 7.5 mg/kg/injection, schedule: Q01DX009 (ip), vehicle: saline): 149 % of control | T/C (dose: 10.0 mg/kg/injection, schedule: Q01DX001 (ip), vehicle: saline): 127 and 137 % of control | T/C (dose: 10.0 mg/kg/injection, schedule: Q01DX009 (ip), vehicle: saline): 125 % of control | T/C [10]: 144 % of control | survivor count [11]: 0 of 6 and 3 of 6

COCC/C(COC)=N/N
survivor count [12]: 0 of 4

CCOC(=O)c1ccc[n+](CCCl)c1
survivor count (dose: 300.0 mg/kg/injection, schedule: Q01DX Z (ip), vehicle: saline): 1 of 6

CN1CCN(C(=O)C(c2ccccc2)C2(O)CCCC2)CC1 (configuration not stated)
survivor count [10]: 3 of 6 | survivor count (dose: 40.0 mg/kg/injection, schedule: Q01DX001 (ip), vehicle: saline): 0 of 6 | survivor count [11]: 0 of 6

CC(=O)NCC(=O)[O][Sn]([c]1ccc(C)cc1)([c]1ccc(C)cc1)[c]1ccc(C)cc1
survivor count (dose: 6.25 mg/kg/injection, schedule: Q01DX009 (ip), vehicle: saline with Tween-80): 1 of 3 | survivor count (dose: 12.5 mg/kg/injection, schedule: Q01DX009 (ip), vehicle: saline with Tween-80): 0 of 3 | survivor count [3]: 0 of 3 | survivor count (dose: 50.0 mg/kg/injection, schedule: Q01DX009 (ip), vehicle: saline): 0 of 3 | survivor count (dose: 100.0 mg/kg/injection, schedule: Q01DX009 (ip), vehicle: saline): 0 of 3 | survivor count (dose: 200.0 mg/kg/injection, schedule: Q01DX009 (ip), vehicle: saline): 0 of 3

Cc1cc(N=CN(C)C)c2ccccc2n1
survivor count (dose: 100.0 mg/kg/injection, schedule: Q01DX001 (ip), vehicle: saline with Tween-80): 1 of 6 and 3 of 6 | survivor count (dose: 200.0 mg/kg/injection, schedule: Q01DX001 (ip), vehicle: saline with Tween-80): 0 of 6 | survivor count [5]: 0 of 6 | survivor count (dose: 400.0 mg/kg/injection, schedule: Q01DX001 (ip), vehicle: saline with Tween-80): 0 of 6

CC(=O)NN(N=O)C(C)c1ccccc1 (configuration not stated)
survivor count [13]: 0 of 3

C[C@@H]1C[C@H]2[C@@H]3CCC4=CC(=O)C=C[C@]4(C)[C@@]3(F)[C@@H](O)C[C@]2(C)[C@@]1(O)C(=O)CO
survivor count (dose: 75.0 mg/kg/injection, schedule: Q01DX009 (ip), vehicle: saline): 5 of 6 | survivor count (dose: 115.0 mg/kg/injection, schedule: Q01DX009 (ip), vehicle: saline): 5 of 6 | survivor count (dose: 150.0 mg/kg/injection, schedule: Q04DX003 (ip), vehicle: saline with Tween-80): 3 of 6 | survivor count (dose: 170.0 mg/kg/injection, schedule: Q01DX009 (ip), vehicle: saline): 6 of 6 | survivor count [9]: 6 of 6 | survivor count (dose: 400.0 mg/kg/injection, schedule: Q04DX003 (ip), vehicle: Klucel (hydroxypropylcellulose) (HPC)): 5 of 6

CCN=C=NCCCN(C)C
survivor count (dose: 80.0 mg/kg/injection, schedule: Q01DX009 (ip), vehicle: saline): 2 of 6

Cc1cccc(C(C#N)c2ccc(N)cc2)c1 (configuration not stated)
survivor count [12]: 1 of 4

CCN=C(N)CSS(=O)(=O)O
survivor count (dose: 200.0 mg/kg/injection, schedule: Q04DX002 (ip), vehicle: Klucel (hydroxypropylcellulose) (HPC)): 1 of 3 | survivor count [13]: 0 of 3

CC(=O)Nc1nc(Cl)c([N+](=O)[O-])c(Cl)n1
survivor count (dose: 25.0 mg/kg/injection, schedule: Q01DX001 (ip), vehicle: Klucel (hydroxypropylcellulose) (HPC)): 0 of 6 | survivor count (dose: 50.0 mg/kg/injection, schedule: Q01DX001 (ip), vehicle: Klucel (hydroxypropylcellulose) (HPC)): 0 of 6

CC1CCCC/C1=N/NC(N)=O (configuration not stated)
survivor count [1]: 2 of 6 | survivor count [2]: 1 of 6

Cc1c(CBr)c(=O)[nH]c2ccccc12
survivor count [12]: 0 of 6

CCNC(=O)c1ccccc1-c1ccccc1C(=O)NCC
survivor count (dose: 200.0 mg/kg/injection, schedule: Q01DX001 (ip), vehicle: other): 0 of 4 | survivor count (dose: 400.0 mg/kg/injection, schedule: Q01DX001 (ip), vehicle: other): 0 of 4

CC(=O)C(Cl)C(C)=O.CC(=O)C(Cl)C(C)=O.CO.CO.[Ni]
survivor count (dose: 50.0 mg/kg/injection, schedule: Q01DX009 (ip), vehicle: other): 5 of 6 | survivor count [12]: 0 of 6

CN(C)NCC(O)COc1ccc(Cl)cc1 (configuration not stated)
survivor count [13]: 0 of 3

COc1cc2cccc(OC)c(=O)c2c(O)c1OC
survivor count [1]: 0 of 6 | survivor count [2]: 0 of 6

Cc1ccc(C)c(N=C=O)c1
survivor count [6]: 1 of 6
